According to the supplement of paper PMC12823440, “Inhibitors supercharge kinase turnover through native proteolytic circuits” (Nature, 2025):
The list shows a part of the results. Hit calls seldom repeat between salt and free forms of one compound.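 Kinases were expressed as nanoluciferase fusions in K562 cells and luminescence was read every 4 h between 2 and 18 h as percent of control, DMSO set to 100% and a positive control to 0%. A time point counts as decreased when the signal drops significantly (2 sigma). The hit call is the authors' own, does not follow from the count of time points alone, and its rule is not shown.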

The chains behind the UniProt entries cited, without tags or fusion partners. Where a name states a change or a piece, a line headed by the entry shows the natural chain unless it says otherwise.
UniProt Q9UBF8: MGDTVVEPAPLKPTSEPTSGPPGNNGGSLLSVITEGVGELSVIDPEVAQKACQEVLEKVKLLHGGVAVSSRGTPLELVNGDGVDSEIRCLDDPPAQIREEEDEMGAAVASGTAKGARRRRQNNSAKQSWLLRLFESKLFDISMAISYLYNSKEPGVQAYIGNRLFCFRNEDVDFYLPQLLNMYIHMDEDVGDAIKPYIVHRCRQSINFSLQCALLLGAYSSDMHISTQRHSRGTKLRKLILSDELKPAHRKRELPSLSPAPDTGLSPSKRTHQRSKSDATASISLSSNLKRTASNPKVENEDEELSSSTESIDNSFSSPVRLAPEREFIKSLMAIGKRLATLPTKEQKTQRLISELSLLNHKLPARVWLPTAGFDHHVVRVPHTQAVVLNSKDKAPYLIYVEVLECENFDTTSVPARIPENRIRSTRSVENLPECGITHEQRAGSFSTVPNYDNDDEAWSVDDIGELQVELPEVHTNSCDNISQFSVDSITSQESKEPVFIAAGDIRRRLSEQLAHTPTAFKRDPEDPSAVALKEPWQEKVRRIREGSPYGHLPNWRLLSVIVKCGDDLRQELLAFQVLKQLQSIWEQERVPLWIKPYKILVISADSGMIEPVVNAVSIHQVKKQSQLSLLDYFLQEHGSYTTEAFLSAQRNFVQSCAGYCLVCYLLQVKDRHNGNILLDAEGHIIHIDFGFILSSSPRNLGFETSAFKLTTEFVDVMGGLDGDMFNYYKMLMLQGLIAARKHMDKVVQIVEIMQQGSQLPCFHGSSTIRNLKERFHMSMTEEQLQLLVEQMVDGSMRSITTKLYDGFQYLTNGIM
UniProt P53667: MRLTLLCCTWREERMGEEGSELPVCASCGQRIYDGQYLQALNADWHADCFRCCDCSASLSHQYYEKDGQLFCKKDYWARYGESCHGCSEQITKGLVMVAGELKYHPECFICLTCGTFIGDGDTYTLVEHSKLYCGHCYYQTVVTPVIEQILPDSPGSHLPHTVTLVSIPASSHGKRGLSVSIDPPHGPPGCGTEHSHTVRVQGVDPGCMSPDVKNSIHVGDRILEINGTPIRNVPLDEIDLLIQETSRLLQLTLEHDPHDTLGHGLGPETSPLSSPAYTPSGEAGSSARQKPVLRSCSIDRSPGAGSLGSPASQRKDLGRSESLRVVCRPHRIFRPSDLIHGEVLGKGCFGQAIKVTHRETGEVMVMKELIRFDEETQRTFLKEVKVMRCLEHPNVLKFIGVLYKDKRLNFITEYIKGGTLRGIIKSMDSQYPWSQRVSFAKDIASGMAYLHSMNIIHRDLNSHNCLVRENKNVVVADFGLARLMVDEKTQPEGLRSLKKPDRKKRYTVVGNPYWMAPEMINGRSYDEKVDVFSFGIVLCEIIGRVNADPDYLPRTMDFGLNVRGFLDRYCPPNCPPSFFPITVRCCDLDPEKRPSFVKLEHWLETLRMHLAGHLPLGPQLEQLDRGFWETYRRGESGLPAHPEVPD
UniProt Q06187: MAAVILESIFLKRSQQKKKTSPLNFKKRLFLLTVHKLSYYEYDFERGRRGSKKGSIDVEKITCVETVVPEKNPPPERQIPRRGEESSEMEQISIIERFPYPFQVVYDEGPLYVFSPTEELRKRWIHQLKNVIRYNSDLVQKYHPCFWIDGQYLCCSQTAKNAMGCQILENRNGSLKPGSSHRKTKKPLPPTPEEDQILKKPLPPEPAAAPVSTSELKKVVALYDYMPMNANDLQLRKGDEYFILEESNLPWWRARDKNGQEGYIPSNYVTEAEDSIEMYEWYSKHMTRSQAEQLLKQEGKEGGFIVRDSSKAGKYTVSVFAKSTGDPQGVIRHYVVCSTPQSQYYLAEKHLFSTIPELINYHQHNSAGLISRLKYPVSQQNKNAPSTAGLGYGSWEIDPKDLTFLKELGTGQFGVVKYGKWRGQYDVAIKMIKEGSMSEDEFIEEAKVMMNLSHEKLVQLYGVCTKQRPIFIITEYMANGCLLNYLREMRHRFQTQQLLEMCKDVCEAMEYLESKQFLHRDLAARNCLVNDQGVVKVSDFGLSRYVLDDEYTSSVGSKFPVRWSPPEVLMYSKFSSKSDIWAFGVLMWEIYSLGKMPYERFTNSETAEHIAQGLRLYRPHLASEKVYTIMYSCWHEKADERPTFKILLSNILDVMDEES
UniProt Q13555: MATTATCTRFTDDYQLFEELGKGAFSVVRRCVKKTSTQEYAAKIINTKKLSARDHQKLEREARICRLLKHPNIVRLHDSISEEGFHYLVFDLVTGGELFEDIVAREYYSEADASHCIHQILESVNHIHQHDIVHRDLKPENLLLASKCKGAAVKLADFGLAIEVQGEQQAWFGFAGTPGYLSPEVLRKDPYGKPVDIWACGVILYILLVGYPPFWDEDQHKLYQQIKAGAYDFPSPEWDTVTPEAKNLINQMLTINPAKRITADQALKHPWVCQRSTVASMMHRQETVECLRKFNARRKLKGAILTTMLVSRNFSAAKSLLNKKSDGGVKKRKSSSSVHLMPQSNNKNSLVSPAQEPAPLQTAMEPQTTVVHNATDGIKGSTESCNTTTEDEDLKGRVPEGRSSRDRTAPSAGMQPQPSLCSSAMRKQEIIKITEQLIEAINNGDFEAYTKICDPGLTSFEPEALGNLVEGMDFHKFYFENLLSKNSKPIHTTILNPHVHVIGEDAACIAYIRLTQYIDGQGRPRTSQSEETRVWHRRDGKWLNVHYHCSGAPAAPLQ
UniProt Q00526: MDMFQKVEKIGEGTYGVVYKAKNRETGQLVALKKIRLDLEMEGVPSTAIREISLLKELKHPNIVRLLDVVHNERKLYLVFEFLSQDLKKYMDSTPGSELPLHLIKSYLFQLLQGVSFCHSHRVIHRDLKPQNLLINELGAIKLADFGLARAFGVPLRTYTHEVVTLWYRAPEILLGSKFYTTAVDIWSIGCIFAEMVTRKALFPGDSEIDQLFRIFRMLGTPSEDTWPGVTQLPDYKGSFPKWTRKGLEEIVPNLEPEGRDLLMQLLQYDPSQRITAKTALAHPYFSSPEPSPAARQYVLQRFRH
UniProt O15530: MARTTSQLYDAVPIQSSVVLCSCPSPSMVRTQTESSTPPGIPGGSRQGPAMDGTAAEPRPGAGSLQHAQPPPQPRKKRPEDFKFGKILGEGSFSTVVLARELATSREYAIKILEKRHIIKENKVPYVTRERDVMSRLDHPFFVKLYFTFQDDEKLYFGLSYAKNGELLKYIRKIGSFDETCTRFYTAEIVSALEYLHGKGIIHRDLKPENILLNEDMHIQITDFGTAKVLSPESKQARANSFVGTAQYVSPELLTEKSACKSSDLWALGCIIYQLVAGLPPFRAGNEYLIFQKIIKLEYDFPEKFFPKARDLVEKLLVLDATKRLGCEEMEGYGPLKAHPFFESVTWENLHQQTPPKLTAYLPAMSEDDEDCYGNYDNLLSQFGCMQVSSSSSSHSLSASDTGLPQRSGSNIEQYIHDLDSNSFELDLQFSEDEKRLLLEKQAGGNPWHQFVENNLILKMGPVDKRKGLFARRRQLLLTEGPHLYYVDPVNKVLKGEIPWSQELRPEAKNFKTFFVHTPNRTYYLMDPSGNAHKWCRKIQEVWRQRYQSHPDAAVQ
UniProt O14965: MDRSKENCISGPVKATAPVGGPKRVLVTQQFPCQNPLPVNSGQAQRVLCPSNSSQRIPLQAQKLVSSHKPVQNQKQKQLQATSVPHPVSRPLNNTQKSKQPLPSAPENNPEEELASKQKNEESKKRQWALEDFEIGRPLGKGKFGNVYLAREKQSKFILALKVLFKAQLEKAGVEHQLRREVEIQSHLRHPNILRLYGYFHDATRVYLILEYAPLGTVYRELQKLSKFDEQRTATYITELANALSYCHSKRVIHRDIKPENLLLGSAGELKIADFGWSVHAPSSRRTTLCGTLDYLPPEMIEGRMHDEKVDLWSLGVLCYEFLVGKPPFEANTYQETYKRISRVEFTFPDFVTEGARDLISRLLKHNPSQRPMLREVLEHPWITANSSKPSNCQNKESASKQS
UniProt Q9NYA1, whole entry: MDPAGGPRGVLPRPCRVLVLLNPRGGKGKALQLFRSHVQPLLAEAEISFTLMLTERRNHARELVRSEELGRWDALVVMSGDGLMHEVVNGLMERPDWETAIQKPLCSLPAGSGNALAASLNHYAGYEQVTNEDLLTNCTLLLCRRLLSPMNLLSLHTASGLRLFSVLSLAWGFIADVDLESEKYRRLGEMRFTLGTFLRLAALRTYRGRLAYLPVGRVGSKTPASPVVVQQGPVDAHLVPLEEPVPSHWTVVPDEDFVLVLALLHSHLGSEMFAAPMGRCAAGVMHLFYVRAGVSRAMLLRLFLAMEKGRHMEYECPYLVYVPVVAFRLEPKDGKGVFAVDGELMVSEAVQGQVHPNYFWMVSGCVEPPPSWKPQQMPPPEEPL
UniProt Q6PHR2: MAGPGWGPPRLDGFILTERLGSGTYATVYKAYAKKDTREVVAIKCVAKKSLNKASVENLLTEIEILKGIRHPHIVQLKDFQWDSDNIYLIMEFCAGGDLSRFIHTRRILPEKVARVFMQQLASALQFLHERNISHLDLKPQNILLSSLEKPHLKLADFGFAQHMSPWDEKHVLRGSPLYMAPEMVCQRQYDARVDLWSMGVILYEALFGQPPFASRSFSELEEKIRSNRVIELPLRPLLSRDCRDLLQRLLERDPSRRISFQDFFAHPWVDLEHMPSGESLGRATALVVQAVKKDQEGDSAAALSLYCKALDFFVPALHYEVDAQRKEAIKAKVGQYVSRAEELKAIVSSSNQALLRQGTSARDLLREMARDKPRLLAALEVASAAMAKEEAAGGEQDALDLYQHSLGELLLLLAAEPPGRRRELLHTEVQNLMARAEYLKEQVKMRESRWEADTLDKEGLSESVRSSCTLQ
UniProt O96013: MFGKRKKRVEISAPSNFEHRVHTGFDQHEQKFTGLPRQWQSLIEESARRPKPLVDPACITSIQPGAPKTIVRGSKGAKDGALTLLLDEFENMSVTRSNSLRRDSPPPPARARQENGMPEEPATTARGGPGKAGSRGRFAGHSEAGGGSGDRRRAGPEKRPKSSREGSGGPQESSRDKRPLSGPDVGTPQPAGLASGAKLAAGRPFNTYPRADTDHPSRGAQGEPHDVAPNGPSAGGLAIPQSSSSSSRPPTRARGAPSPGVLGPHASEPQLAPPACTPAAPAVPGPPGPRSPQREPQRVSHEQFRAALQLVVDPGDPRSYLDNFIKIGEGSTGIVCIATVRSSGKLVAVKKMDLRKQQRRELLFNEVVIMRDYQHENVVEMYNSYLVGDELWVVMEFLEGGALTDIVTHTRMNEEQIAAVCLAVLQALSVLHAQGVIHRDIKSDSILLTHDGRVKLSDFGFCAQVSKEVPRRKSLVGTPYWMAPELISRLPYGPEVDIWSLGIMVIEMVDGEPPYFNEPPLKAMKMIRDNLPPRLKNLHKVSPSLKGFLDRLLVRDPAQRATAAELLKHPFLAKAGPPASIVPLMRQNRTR
UniProt P23458: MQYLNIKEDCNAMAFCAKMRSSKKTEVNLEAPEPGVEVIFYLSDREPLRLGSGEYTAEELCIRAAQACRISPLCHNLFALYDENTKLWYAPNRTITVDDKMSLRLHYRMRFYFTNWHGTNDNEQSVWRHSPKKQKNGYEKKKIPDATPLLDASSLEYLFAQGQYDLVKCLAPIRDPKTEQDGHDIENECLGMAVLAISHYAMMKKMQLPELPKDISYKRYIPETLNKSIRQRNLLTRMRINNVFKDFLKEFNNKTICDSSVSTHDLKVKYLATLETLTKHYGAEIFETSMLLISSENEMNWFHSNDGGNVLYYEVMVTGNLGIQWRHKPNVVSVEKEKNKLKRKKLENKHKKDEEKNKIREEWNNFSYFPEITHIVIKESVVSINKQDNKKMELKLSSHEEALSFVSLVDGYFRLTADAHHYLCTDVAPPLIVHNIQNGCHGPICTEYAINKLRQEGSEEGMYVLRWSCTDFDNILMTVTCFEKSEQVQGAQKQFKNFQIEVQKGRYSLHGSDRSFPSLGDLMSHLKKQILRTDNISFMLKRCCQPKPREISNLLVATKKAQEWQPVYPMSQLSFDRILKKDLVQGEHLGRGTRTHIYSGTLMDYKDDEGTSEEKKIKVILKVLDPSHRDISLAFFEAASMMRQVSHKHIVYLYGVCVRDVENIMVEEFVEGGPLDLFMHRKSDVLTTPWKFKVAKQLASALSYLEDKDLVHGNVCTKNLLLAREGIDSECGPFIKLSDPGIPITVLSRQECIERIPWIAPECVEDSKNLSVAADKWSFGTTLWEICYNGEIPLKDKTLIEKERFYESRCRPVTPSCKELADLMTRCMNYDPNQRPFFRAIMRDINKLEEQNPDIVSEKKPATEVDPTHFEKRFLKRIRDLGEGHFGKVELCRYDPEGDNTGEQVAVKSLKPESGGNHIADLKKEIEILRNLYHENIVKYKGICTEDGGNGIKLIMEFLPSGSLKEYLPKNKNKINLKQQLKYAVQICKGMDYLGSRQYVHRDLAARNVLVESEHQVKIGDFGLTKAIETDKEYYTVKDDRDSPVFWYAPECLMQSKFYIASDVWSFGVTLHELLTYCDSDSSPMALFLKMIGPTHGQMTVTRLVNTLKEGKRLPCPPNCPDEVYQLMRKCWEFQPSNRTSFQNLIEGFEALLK

Key:
Assay in all cases: number of time points (of 5) at which kinase-Nluc abundance scored as decreased, DMSO-normalised (count); higher = more persistent destabilization
[1] = compound: C#Cc1cccc(Nc2ncnc3cc(OCCOC)c(OCCO)cc23)c1 [Desmethyl Erlotinib (hydrochloride)]; settings: 10 µM; K562; 2-18 h
Desmethyl Erlotinib = compound: C#Cc1cccc(Nc2ncnc3cc(OCCOC)c(OCCO)cc23)c1 [Desmethyl Erlotinib]; settings: 10 µM; K562; 2-18 h
[2] = compound: C#Cc1cccc(Nc2ncnc3cc(OCCOC)c(OCCOC)cc23)c1 [Erlotinib (Hydrochloride)]; settings: 10 µM; K562; 2-18 h
Erlotinib = compound: C#Cc1cccc(Nc2ncnc3cc(OCCOC)c(OCCOC)cc23)c1 [Erlotinib]; settings: 10 µM; K562; 2-18 h
Icotinib (Hydrochloride) = compound: C#Cc1cccc(Nc2ncnc3cc4c(cc23)OCCOCCOCCO4)c1 [Icotinib (Hydrochloride)]; settings: 10 µM; K562; 2-18 h
Icotinib = compound: C#Cc1cccc(Nc2ncnc3cc4c(cc23)OCCOCCOCCO4)c1 [Icotinib]; settings: 10 µM; K562; 2-18 h
(Z)-Guggulsterone = compound: C/C=C1\C(=O)C[C@H]2[C@@H]3CCC4=CC(=O)CC[C@]4(C)[C@H]3CC[C@]12C [(Z)-Guggulsterone]; settings: 10 µM; K562; 2-18 h
Guggulsterone = compound: C/C=C1\C(=O)C[C@H]2[C@@H]3CCC4=CC(=O)CC[C@]4(C)[C@H]3CC[C@]12C [Guggulsterone]; settings: 10 µM; K562; 2-18 h
[3] = compound: C=CC(=O)N1CCN(c2ncnc3c(F)c(-c4c(O)cccc4F)c(Cl)cc23)CC1; settings: K562, 2-18 h
Mobocertinib (succinate) = compound: C=CC(=O)Nc1cc(Nc2ncc(C(=O)OC(C)C)c(-c3cn(C)c4ccccc34)n2)c(OC)cc1N(C)CCN(C)C [Mobocertinib (succinate)]; settings: 10 µM; K562; 2-18 h
Mobocertinib = compound: C=CC(=O)Nc1cc(Nc2ncc(C(=O)OC(C)C)c(-c3cn(C)c4ccccc34)n2)c(OC)cc1N(C)CCN(C)C [Mobocertinib]; settings: 10 µM; K562; 2-18 h
Osimertinib (dimesylate) = compound: C=CC(=O)Nc1cc(Nc2nccc(-c3cn(C)c4ccccc34)n2)c(OC)cc1N(C)CCN(C)C [Osimertinib (dimesylate)]; settings: 2.5 µM; K562; 2-18 h
Osimertinib mesylate = compound: C=CC(=O)Nc1cc(Nc2nccc(-c3cn(C)c4ccccc34)n2)c(OC)cc1N(C)CCN(C)C [Osimertinib mesylate]; settings: 2.5 µM; K562; 2-18 h
Osimertinib = compound: C=CC(=O)Nc1cc(Nc2nccc(-c3cn(C)c4ccccc34)n2)c(OC)cc1N(C)CCN(C)C [Osimertinib]; settings: 2.5 µM; K562; 2-18 h
[4] = compound: C=CC(=O)Nc1cc(Nc2nccc(-c3cn(C4CC4)c4ccccc34)n2)c(OC)cc1N(C)CCN(C)C [Almonertinib (hydrochloride)]; settings: 2.5 µM; K562; 2-18 h
Almonertinib = compound: C=CC(=O)Nc1cc(Nc2nccc(-c3cn(C4CC4)c4ccccc34)n2)c(OC)cc1N(C)CCN(C)C [Almonertinib]; settings: 2.5 µM; K562; 2-18 h
AV-412 (free base) = compound: C=CC(=O)Nc1cc2c(Nc3ccc(F)c(Cl)c3)ncnc2cc1C#CC(C)(C)N1CCN(C)CC1 [AV-412 (free base)]; settings: 2.5 µM; K562; 2-18 h
[5] = compound: C=CC(=O)Nc1cc2c(Nc3ccc(F)c(Cl)c3)ncnc2cc1C#CC(C)(C)N1CCN(C)CC1; settings: 2.5 µM; K562; 2-18 h
[6] = compound: CC(=O)N[C@H](Cc1ccc(O)cc1)C(=O)N[C@H](CCCN=C(N)N)C(=O)N[C@H](Cc1ccccc1)C(N)=O; settings: 10 µM; K562; 2-18 h
[7] = compound: CC(=O)Nc1cccc(-n2c(=O)n(C3CC3)c(=O)c3c(Nc4ccc(I)cc4F)n(C)c(=O)c(C)c32)c1 [Trametinib (DMSO solvate)]; settings: 10 µM; K562; 2-18 h

Target | number of time points [1] | number of time points (Desmethyl Erlotinib) | number of time points [2] | number of time points (Erlotinib) | number of time points (Icotinib (Hydrochloride)) | number of time points (Icotinib) | number of time points ((Z)-Guggulsterone) | number of time points (Guggulsterone) | number of time points ([3]; 2.5 µM) | number of time points ([3]; 10 µM) | number of time points (Mobocertinib (succinate)) | number of time points (Mobocertinib) | number of time points (Osimertinib (dimesylate)) | number of time points (Osimertinib mesylate) | number of time points (Osimertinib) | number of time points [4] | number of time points (Almonertinib) | number of time points (AV-412 (free base)) | number of time points [5] | number of time points [6] | number of time points [7]
PIK4CB (UniProt Q9UBF8) | 0 | 0 | 0 | 0 | 0 | 3 | 0 | 0 | 0 | 0 | 0 | 0 | 0 | 0 | 0 | 0 | 0 | 0 | 0 | 0 | 0
FLT3 (UniProt P36888) | 0 | 0 | 0 | 0 | 0 | 0 | 0 | 0 | 0 | 0 | 0 | 0 | 0 | 0 | 0 | 0 | 0 | 0 | 0 | 0 | 0
LIMK1 (UniProt P53667) | 0 | 0 | 0 | 1 | 0 | 0 | 0 | 0 | 0 | 0 | 0 | 0 | 0 | 0 | 0 | 0 | 0 | 0 | 5 | 0 | 0
BTK (UniProt Q06187) | 0 | 0 | 0 | 0 | 0 | 0 | 0 | 0 | 0 | 0 | 0 | 3 | 0 | 0 | 0 | 0 | 0 | 0 | 0 | 0 | 0
CAMK2G (UniProt Q13555) | 0 | 0 | 0 | 0 | 0 | 0 | 0 | 0 | 0 | 0 | 0 | 0 | 0 | 0 | 0 | 0 | 0 | 0 | 0 | 0 | 0
CDK3 (UniProt Q00526) | 0 | 0 | 0 | 0 | 0 | 0 | 0 | 0 | 0 | 0 | 0 | 0 | 0 | 0 | 0 | 0 | 0 | 0 | 0 | 0 | 0
EPHA2 (UniProt P29317) | 0 | 0 | 0 | 0 | 0 | 0 | 0 | 0 | 0 | 0 | 0 | 0 | 0 | 0 | 0 | 0 | 0 | 0 | 0 | 0 | 0
PDPK1 (UniProt O15530) | 0 | 0 | 0 | 0 | 0 | 1 | 0 | 0 | 0 | 0 | 0 | 0 | 0 | 0 | 0 | 0 | 0 | 0 | 0 | 0 | 1
EGFR_L858R (UniProt P00533) | 0 | 0 |  |  | 0 | 0 | 0 | 0 | 0 | 0 | 0 | 0 |  |  |  | 0 | 0 | 0 | 0 | 0 | 0
EGFR_L861Q (UniProt P00533) | 0 | 0 |  |  | 0 | 0 | 0 | 0 | 0 | 0 | 0 | 0 |  |  |  | 0 | 0 | 0 | 0 | 0 | 0
AURKA (UniProt O14965) | 0 | 0 | 0 | 0 | 0 | 3 | 0 | 0 | 0 | 0 | 0 | 0 | 0 | 0 | 0 | 0 | 0 | 4 | 4 | 0 | 1
SPHK1 (UniProt Q9NYA1) | 0 | 0 | 0 | 0 | 0 | 0 | 0 | 0 | 0 | 0 | 0 | 0 | 0 | 0 | 0 | 0 | 0 | 0 | 0 | 0 | 0
ULK3 (UniProt Q6PHR2) | 0 | 0 | 0 | 0 | 0 | 0 | 0 | 0 | 0 | 0 | 0 | 0 | 2 | 1 | 0 | 0 | 0 | 0 | 2 | 0 | 0
PAK4 (UniProt O96013) | 0 | 0 | 0 | 0 | 0 | 0 | 0 | 0 | 0 | 0 | 0 | 0 | 0 | 0 | 0 | 0 | 0 | 0 | 0 | 0 | 0
JAK1 (UniProt P23458) | 0 | 0 | 0 | 0 | 0 | 1 | 0 | 0 | 0 | 0 | 0 | 0 | 0 | 0 | 0 | 0 | 0 | 0 | 0 | 0 | 0
